Sequences and labels used below:
B1: AGK (protein, UniProt Q53H12 1-422, looked up)
Acylglycerol kinase, …: MTVFFKTLRNHWKKTTAGLCLLTWGGHWLYGKHCDNLLRRAACQEAQVFGNQLIPPNAQVKKATVFLNPAACKGKARTLFEKNAAPILHLSGMDVTIVKTDYEGQAKKLLELMENTDVIIVAGGDGTLQEVVTGVLRRTDEATFSKIPIGFIPLGETSSLSHTLFAESGNKVQHITDATLAIVKGETVPLDVLQIKGEKEQPVFAMTGLRWGSFRDAGVKVSKYWYLGPLKIKAAHFFSTLKEWPQTHQASISYTGPTERPPNEPEETPVQRPSLYRRILRRLASYWAQPQDALSQEVSPEVWKDVQLSTIELSITTRNNQLDPTSKEDFLNICIEPDTISKGDFITIGSRKVRNPKLHVEGTECLQASQCTLLIPEGAGGSFSIDSEEYEAMPVEVKLLPRKLQFFCDPRKREQMLTSPTQ
B2: LONP1 (protein, UniProt P36776 68-959, looked up)
Lon protease homolog, …: FWEASSRGGGAFSGGEDASEGGAEEGAGGAGGSAGAGEGPVITALTPMTIPDVFPHLPLIAITRNPVFPRFIKIIEVKNKKLVELLRRKVRLAQPYVGVFLKRDDSNESDVVESLDEIYHTGTFAQIHEMQDLGDKLRMIVMGHRRVHISRQLEVEPEEPEAENKHKPRRKSKRGKKEAEDELSARHPAELAMEPTPELPAEVLMVEVENVVHEDFQVTEEVKALTAEIVKTIRDIIALNPLYRESVLQMMQAGQRVVDNPIYLSDMGAALTGAESHELQDVLEETNIPKRLYKALSLLKKEFELSKLQQRLGREVEEKIKQTHRKYLLQEQLKIIKKELGLEKDDKDAIEEKFRERLKELVVPKHVMDVVDEELSKLGLLDNHSSEFNVTRNYLDWLTSIPWGKYSNENLDLARAQAVLEEDHYGMEDVKKRILEFIAVSQLRGSTQGKILCFYGPPGVGKTSIARSIARALNREYFRFSVGGMTDVAEIKGHRRTYVGAMPGKIIQCLKKTKTENPLILIDEVDKIGRGYQGDPSSALLELLDPEQNANFLDHYLDVPVDLSKVLFICTANVTDTIPEPLRDRMEMINVSGYVAQEKLAIAERYLVPQARALCGLDESKAKLSSDVLTLLIKQYCRESGVRNLQKQVEKVLRKSAYKIVSGEAESVEVTPENLQDFVGKPVFTVERMYDVTPPGVVMGLAWTAMGGSTLFVETSLRRPQDKDAKGDKDGSLEVTGQLGEVMKESARIAYTFARAFLMQHAPANDYLVTSHIHLHVPEGATPKDGPSAGCTIVTALLSLAMGRPVRQNLAMTGEVSLTGKILPVGGIKEKTIAAKRAGVTCIVLPAENKKDFYDLAAFITEGLEVHFVEHYREIFDIAFPDEQAEALAVER
B3: FBL (protein, UniProt P22087 1-321, looked up)
rRNA 2'-O-methyltransferase …: MKPGFSPRGGGFGGRGGFGDRGGRGGRGGFGGGRGRGGGFRGRGRGGGGGGGGGGGGGRGGGGFHSGGNRGRGRGGKRGNQSGKNVMVEPHRHEGVFICRGKEDALVTKNLVPGESVYGEKRVSISEGDDKIEYRAWNPFRSKLAAAILGGVDQIHIKPGAKVLYLGAASGTTVSHVSDIVGPDGLVYAVEFSHRSGRDLINLAKKRTNIIPVIEDARHPHKYRMLIAMVDVIFADVAQPDQTRIVALNAHTFLRNGGHFVISIKANCIDSTASAEAVFASEVKKMQQENMKPQEQLTLEPYERDHAVVVGVYRPPPKVKN
B4: KRT1 (protein, UniProt P04264 2-644, looked up)
Keratin, type II cytoskeletal …: SRQFSSRSGYRSGGGFSSGSAGIINYQRRTTSSSTRRSGGGGGRFSSCGGGGGSFGAGGGFGSRSLVNLGGSKSISISVARGGGRGSGFGGGYGGGGFGGGGFGGGGFGGGGIGGGGFGGFGSGGGGFGGGGFGGGGYGGGYGPVCPPGGIQEVTINQSLLQPLNVEIDPEIQKVKSREREQIKSLNNQFASFIDKVRFLEQQNQVLQTKWELLQQVDTSTRTHNLEPYFESFINNLRRRVDQLKSDQSRLDSELKNMQDMVEDYRNKYEDEINKRTNAENEFVTIKKDVDGAYMTKVDLQAKLDNLQQEIDFLTALYQAELSQMQTQISETNVILSMDNNRSLDLDSIIAEVKAQYEDIAQKSKAEAESLYQSKYEELQITAGRHGDSVRNSKIEISELNRVIQRLRSEIDNVKKQISNLQQSISDAEQRGENALKDAKNKLNDLEDALQQAKEDLARLLRDYQELMNTKLALDLEIATYRTLLEGEESRMSGECAPNVSVSVSTSHTTISGGGSRGGGGGGYGSGGSSYGSGGGSYGSGGGGGGGRGSYGSGGSSYGSGGGSYGSGGGGGGHGSYGSGSSSGGYRGGSGGGGGGSSGGRGSGGGSSGGSIGGRGSSSGGVKSSGGSSSVKFVSTTYSGVTR
B5: SMARCD2 (protein)
chain: MSGRGAGGFPLPPLSPGGGAVAAALGAPPPPAGPGMLPGPALRGPGPAGGVGGPGAAAFRPMGPAGPAAQYQRPGMSPGNRMPMAGLQVGPPAGSPFGAAAPLRPGMPPTMMDPFRKRLLVPQAQPPMPAQRRGLKRRKMADKVLPQRIRELVPESQAYMDLLAFERKLDQTIARKRMEIQEAIKKPLTQKRKLRIYISNTFSPSKAEGDSAGTAGTPGGTPAGDKVASWELRVEGKLLDDPSKQKRKFSSFFKSLVIELDKELYGPDNHLVEWHRMPTTQETDGFQVKRPGDLNVKCTLLLMLDHQPPQYKLDPRLARLLGVHTQTRAAIMQALWLYIKHNQLQDGHEREYINCNRYFRQIFSCGRLRFSEIPMKLAGLLQHPDPIVINHVISVDPNDQKKTACYDIDVEVDDPLKAQMSNFLASTTNQQEIASLDVKIHETIESINQLKTQRDFMLSFSTDPQDFIQEWLRSQRRDLKIITDVIGNPEEERRAAFYHQPWAQEAVGRHIFAKVQQRRQELEQVLGIRLT
B6: KRT14 (protein, UniProt P02533 1-472, looked up)
Keratin, type I cytoskeletal …: MTTCSRQFTSSSSMKGSCGIGGGIGGGSSRISSVLAGGSCRAPSTYGGGLSVSSSRFSSGGACGLGGGYGGGFSSSSSSFGSGFGGGYGGGLGAGLGGGFGGGFAGGDGLLVGSEKVTMQNLNDRLASYLDKVRALEEANADLEVKIRDWYQRQRPAEIKDYSPYFKTIEDLRNKILTATVDNANVLLQIDNARLAADDFRTKYETELNLRMSVEADINGLRRVLDELTLARADLEMQIESLKEELAYLKKNHEEEMNALRGQVGGDVNVEMDAAPGVDLSRILNEMRDQYEKMAEKNRKDAEEWFFTKTEELNREVATNSELVQSGKSEISELRRTMQNLEIELQSQLSMKASLENSLEETKGRYCMQLAQIQEMIGSVEEQLAQLRCEMEQQNQEYKILLDVKTRLEQEIATYRRLLEGEDAHLSSSQFSSGSQSSRDVTSSSRQIRTKVMDVHDGKVVSTHEQVLRTKN
B7: IKZF4 (protein, UniProt Q9H2S9 1-585, looked up)
Zinc finger protein Eos: MHTPPALPRRFQGGGRVRTPGSHRQGKDNLERDPSGGCVPDFLPQAQDSNHFIMESLFCESSGDSSLEKEFLGAPVGPSVSTPNSQHSSPSRSLSANSIKVEMYSDEESSRLLGPDERLLEKDDSVIVEDSLSEPLGYCDGSGPEPHSPGGIRLPNGKLKCDVCGMVCIGPNVLMVHKRSHTGERPFHCNQCGASFTQKGNLLRHIKLHSGEKPFKCPFCNYACRRRDALTGHLRTHSVSSPTVGKPYKCNYCGRSYKQQSTLEEHKERCHNYLQSLSTEAQALAGQPGDEIRDLEMVPDSMLHSSSERPTFIDRLANSLTKRKRSTPQKFVGEKQMRFSLSDLPYDVNSGGYEKDVELVAHHSLEPGFGSSLAFVGAEHLRPLRLPPTNCISELTPVISSVYTQMQPLPGRLELPGSREAGEGPEDLADGGPLLYRPRGPLTDPGASPSNGCQDSTDTESNHEDRVAGVVSLPQGPPPQPPPTIVVGRHSPAYAKEDPKPQEGLLRGTPGPSKEVLRVVGESGEPVKAFKCEHCRILFLDHVMFTIHMGCHGFRDPFECNICGYHSQDRYEFSSHIVRGEHKVG
B8: ATP5O (protein, UniProt P48047 24-213, looked up)
ATP synthase peripheral stalk …: FAKLVRPPVQVYGIEGRYATALYSAASKQNKLEQVEKELLRVAQILKEPKVAASVLNPYVKRSIKVKSLNDITAKERFSPLTTNLINLLAENGRLSNTQGVVSAFSTMMSVHRGEVPCTVTSASPLEEATLSELKTVLKSFLSQGQVLKLEAKTDPSILGGMIVRIGEKYVDMSVKTKIQKLGRAMREIV
B9: ETFA (protein, UniProt P13804 20-333, looked up)
Electron transfer …: QSTLVIAEHANDSLAPITLNTITAATRLGGEVSCLVAGTKCDKVAQDLCKVAGIAKVLVAQHDVYKGLLPEELTPLILATQKQFNYTHICAGASAFGKNLLPRVAAKLEVAPISDIIAIKSPDTFVRTIYAGNALCTVKCDEKVKVFSVRGTSFDAAATSGGSASSEKASSTSPVEISEWLDQKLTKSDRPELTGAKVVVSGGRGLKSGENFKLLYDLADQLHAAVGASRAAVDAGFVPNDMQVGQTGKIVAPELYIAVGISGAIQHLAGMKDSKTIVAINKDPEAPIFQVADYGIVADLFKVVPEMTEILKKK
B10: ATP5C1 (protein, UniProt P36542 26-298, looked up)
ATP synthase F(1) complex …: ATLKDITRRLKSIKNIQKITKSMKMVAAAKYARAERELKPARIYGLGSLALYEKADIKGPEDKKKHLLIGVSSDRGLCGAIHSSIAKQMKSEVATLTAAGKEVMLVGIGDKIRGILYRTHSDQFLVAFKEVGRKPPTFGDASVIALELLNSGYEFDEGSIIFNKFRSVISYKTEEKPIFSLNTVASADSMSIYDDIDADVLQNYQEYNLANIIYYSLKESTTSEQSARMTAMDNASKNASEMIDKLTLTFNRTRQAVITKELIEIISGAAALD
B11: RBMX2 (protein, UniProt Q9Y388 1-322, looked up)
RNA-binding motif protein, …: MNPLTKVKLINELNEREVQLGVADKVSWHSEYKDSAWIFLGGLPYELTEGDIICVFSQYGEIVNINLVRDKKTGKSKGFCFLCYEDQRSTILAVDNFNGIKIKGRTIRVDHVSNYRAPKDSEEIDDVTRQLQEKGCGARTPSPSLSESSEDEKPTKKHKKDKKEKKKKKKEKEKADREVQAEQPSSSSPRRKTVKEKDDTGPKKHSSKNSERAQKSEPREGQKLPKSRTAYSGGAEDLERELKKEKPKHEHKSSSRREAREEKTRIRDRGRSSDAHSSWYNGRSEGRSYRSRSRSRDKSHRHKRARRSRERESSNPSDRWRH

The first data set has as its system mSWI/SNF complexes. Put plainly: mSWI/SNF complex purification with HA-tagged baits and mass spectrometry (peptide counts). Also on record: species or system human. As to conditions: 293_HA-BRD7: HA-BRD7 bait purification, total peptide count per co-purified protein.
Regarding B1, the Total amounted to 7.
With B2, the Total is given as 7.
In the case of B3, the Total was 7.
B4 displayed a Total of 48.
Molecule B5 displayed a Total of 59.
Molecule B6 showed a Total of 7.
Turning to B7, the Total worked out at 8.
B8 yielded a Total of 7.
The same measure, in the same setting: next, B9: 6.
For the molecule B10, the Total was 7.
Consider B11, for which the Total was 7.

The same data set, now with this note: 293_HA-BRD7: HA-BRD7 bait purification, unique peptide count per co-purified protein.
For the molecule B1, the Unique was found to be 7.
Consider B2, for which the Unique was 7.
The same measure, in the same setting: next, B3: 7.
Molecule B4 returned a Unique of 35.
In turn, B5 showed a Unique of 34.
On the same count and under the same terms, next, B6: 7; B7: 6.
Take B8: the Unique is 7.
On to B9, for which the Unique came out at 6.
As to B10, the Unique came to 7.
Still for that read-out and setting: with B11 the figure was 6.

The same data set, now with this note: 293_HA-DPF2 purification, total peptides.
Molecule B1 registered a Total of 1.
Same read-out and setting: with B5 the figure was 51.
B10: the Total is 1.

The data set is the same for the next values; noted with them: 293_HA-DPF2 purification, unique peptides.
Take B1: the Unique stood at 1.
For B5, the Unique was found to be 32.
Take B10: the Unique is recorded as 1.
